Data source: PubChem BioAssay AID1259405 (NCATS, 2018)
This is one part, drawn at random, of about 50,000 reagents. In the full data, about 4,000 (8%) are marked active. 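Mouse siRNA library applied to hamster cells; one well for each siRNA.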 Reagents against one gene are numbered here.

Assay: 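Knock-downs that lift recombinant protein yield in hamster ovary cells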 (primary screen)
Cell system: Chinese hamster CHO-K1 ovary cells with stable secreted eGFP expression
Reagents: single siRNA against mouse genes, 0.8 pmol siRNA per well (2 µl of 400 nM stock)
Time to read-out: 3 days
Detection: 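Per-well intracellular GFP measured by laser scanning cytometry, plus viability from ATP luminescence, each relative to plate median of non-targeting control wells, in %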
Reading the numbers: GFP, % of control: higher = more GFP per well, higher productivity; viability (ATP), % of control: higher = more viable cells (more ATP)
Active means: 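Called active when intracellular GFP, relative to negative control, is at or above 120%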

For Hvcn1 (hydrogen voltage-gated channel 1) #1, what does the deposit list?
GFP, % of control: 79.6; viability (ATP), % of control: 101; call: inactive

Which result is listed for Hvcn1 (hydrogen voltage-gated channel 1) #2?
GFP, % of control: 67.8; viability (ATP), % of control: 58.7; call: inactive

With Hvcn1 (hydrogen voltage-gated channel 1) #3, how do the results read?
GFP, % of control: 90.7; viability (ATP), % of control: 90; call: inactive

How did the screen score Lnx1 (ligand of numb-protein X 1) #1?
GFP, % of control: 84.5; viability (ATP), % of control: 74.9; call: inactive

With Lnx1 (ligand of numb-protein X 1) #2, what does the deposit list?
GFP, % of control: 96.7; viability (ATP), % of control: 93; call: inactive

With Lnx1 (ligand of numb-protein X 1) #3, what was measured?
GFP, % of control: 150; viability (ATP), % of control: 164; call: active

Which result is listed for Or5ac20 (olfactory receptor family 5 subfamily AC member 20) #1?
GFP, % of control: 45.8; viability (ATP), % of control: 60.7; call: inactive

With Or5ac20 (olfactory receptor family 5 subfamily AC member 20) #2, how do the results read?
GFP, % of control: 76.7; viability (ATP), % of control: 81.7; call: inactive

How did the screen score Or5ac20 (olfactory receptor family 5 subfamily AC member 20) #3?
GFP, % of control: 41.3; viability (ATP), % of control: 85.6; call: inactive

What is on record for Tram2 (translocating chain-associating membrane protein 2) #1?
GFP, % of control: 88.1; viability (ATP), % of control: 89.6; call: inactive

For Tram2 (translocating chain-associating membrane protein 2) #2, what was measured?
GFP, % of control: 71.7; viability (ATP), % of control: 105; call: inactive

With Tram2 (translocating chain-associating membrane protein 2) #3, what does the deposit list?
GFP, % of control: 80.2; viability (ATP), % of control: 97.8; call: inactive

With Aebp1 (AE binding protein 1) #1, what does the deposit list?
GFP, % of control: 78; viability (ATP), % of control: 78.5; call: inactive

With Aebp1 (AE binding protein 1) #2, what does the deposit list?
GFP, % of control: 44.2; viability (ATP), % of control: 50.4; call: inactive

For Aebp1 (AE binding protein 1) #3, how do the results read?
GFP, % of control: 78.2; viability (ATP), % of control: 69.4; call: inactive

Which result is listed for Dnaaf10 (dynein axonemal assembly factor 10) #1?
GFP, % of control: 43.3; viability (ATP), % of control: 37.5; call: inactive

How did the screen score Dnaaf10 (dynein axonemal assembly factor 10) #2?
GFP, % of control: 61.8; viability (ATP), % of control: 73.4; call: inactive

Which result is listed for Dnaaf10 (dynein axonemal assembly factor 10) #3?
GFP, % of control: 56.5; viability (ATP), % of control: 39.4; call: inactive

What did the screen give for Psg29 (pregnancy-specific beta-1-glycoprotein 29) #1?
GFP, % of control: 54.8; viability (ATP), % of control: 55.2; call: inactive

With Psg29 (pregnancy-specific beta-1-glycoprotein 29) #2, what was measured?
GFP, % of control: 55; viability (ATP), % of control: 64.6; call: inactive

Which result is listed for Psg29 (pregnancy-specific beta-1-glycoprotein 29) #3?
GFP, % of control: 81.1; viability (ATP), % of control: 98.3; call: inactive

With Kifap3 (kinesin-associated protein 3) #1, what was measured?
GFP, % of control: 73.5; viability (ATP), % of control: 83.1; call: inactive

With Kifap3 (kinesin-associated protein 3) #2, how do the results read?
GFP, % of control: 71.7; viability (ATP), % of control: 80.3; call: inactive

What did the screen give for Tmem65 (transmembrane protein 65) #1?
GFP, % of control: 44.1; viability (ATP), % of control: 60.9; call: inactive

With Tmem65 (transmembrane protein 65) #2, what does the deposit list?
GFP, % of control: 51.5; viability (ATP), % of control: 67.6; call: inactive

What is on record for Tmem65 (transmembrane protein 65) #3?
GFP, % of control: 80.5; viability (ATP), % of control: 99.5; call: inactive

What did the screen give for Plec (plectin) #1?
GFP, % of control: 80.8; viability (ATP), % of control: 31.3; call: inactive

Which result is listed for Plec (plectin) #2?
GFP, % of control: 49.6; viability (ATP), % of control: 58.1; call: inactive

What did the screen give for Plec (plectin) #3?
GFP, % of control: 62.8; viability (ATP), % of control: 42.3; call: inactive

How did the screen score Topbp1 (topoisomerase (DNA) II binding protein 1) #1?
GFP, % of control: 195; viability (ATP), % of control: 135; call: active

With Topbp1 (topoisomerase (DNA) II binding protein 1) #2, what was measured?
GFP, % of control: 62.6; viability (ATP), % of control: 78.2; call: inactive

What did the screen give for Topbp1 (topoisomerase (DNA) II binding protein 1) #3?
GFP, % of control: 69.5; viability (ATP), % of control: 113; call: inactive

With Topbp1 (topoisomerase (DNA) II binding protein 1) #4, how do the results read?
GFP, % of control: 83.1; viability (ATP), % of control: 94.9; call: inactive

What did the screen give for Topbp1 (topoisomerase (DNA) II binding protein 1) #5?
GFP, % of control: 90.2; viability (ATP), % of control: 66; call: inactive

For Oxsm (3-oxoacyl-ACP synthase, mitochondrial) #1, what does the deposit list?
GFP, % of control: 219; viability (ATP), % of control: 149; call: active

For Oxsm (3-oxoacyl-ACP synthase, mitochondrial) #2, how do the results read?
GFP, % of control: 52.2; viability (ATP), % of control: 114; call: inactive

Which result is listed for Oxsm (3-oxoacyl-ACP synthase, mitochondrial) #3?
GFP, % of control: 75.4; viability (ATP), % of control: 125; call: inactive

What is on record for D930048N14Rik (RIKEN cDNA D930048N14 gene) #1?
GFP, % of control: 63.1; viability (ATP), % of control: 75.6; call: inactive

For D930048N14Rik (RIKEN cDNA D930048N14 gene) #2, how do the results read?
GFP, % of control: 124; viability (ATP), % of control: 65.9; call: active

With D930048N14Rik (RIKEN cDNA D930048N14 gene) #3, what was measured?
GFP, % of control: 97; viability (ATP), % of control: 90.3; call: inactive

With 4930449I24Rik (RIKEN cDNA 4930449I24 gene) #1, what was measured?
GFP, % of control: 49.7; viability (ATP), % of control: 41; call: inactive

What is on record for 4930449I24Rik (RIKEN cDNA 4930449I24 gene) #2?
GFP, % of control: 52.9; viability (ATP), % of control: 59.9; call: inactive

What did the screen give for 4930449I24Rik (RIKEN cDNA 4930449I24 gene) #3?
GFP, % of control: 92.8; viability (ATP), % of control: 72.3; call: inactive

For Cyyr1 (cysteine and tyrosine-rich protein 1) #1, how do the results read?
GFP, % of control: 112; viability (ATP), % of control: 106; call: inactive

What did the screen give for Cyyr1 (cysteine and tyrosine-rich protein 1) #2?
GFP, % of control: 25.3; viability (ATP), % of control: 50.3; call: inactive

With Cyyr1 (cysteine and tyrosine-rich protein 1) #3, what does the deposit list?
GFP, % of control: 129; viability (ATP), % of control: 140; call: active

With Rhox12 (reproductive homeobox 12) #1, what does the deposit list?
GFP, % of control: 82.5; viability (ATP), % of control: 71.6; call: inactive

Which result is listed for Rhox12 (reproductive homeobox 12) #2?
GFP, % of control: 79.8; viability (ATP), % of control: 78.1; call: inactive

What did the screen give for Rhox12 (reproductive homeobox 12) #3?
GFP, % of control: 59.5; viability (ATP), % of control: 49.1; call: inactive

With 9930022D16Rik (RIKEN cDNA 9930022D16 gene) #1, what was measured?
GFP, % of control: 67.1; viability (ATP), % of control: 56.8; call: inactive

For 9930022D16Rik (RIKEN cDNA 9930022D16 gene) #2, what does the deposit list?
GFP, % of control: 61.4; viability (ATP), % of control: 52.8; call: inactive

What did the screen give for 9930022D16Rik (RIKEN cDNA 9930022D16 gene) #3?
GFP, % of control: 82.1; viability (ATP), % of control: 93.1; call: inactive
